# Test results reported in the supplement of paper PMC12823440, “Inhibitors supercharge kinase turnover through native proteolytic circuits” (Nature, 2025).
# The chains behind the UniProt entries cited, without tags or fusion partners. Where a name states a change or a piece, a line headed by the entry shows the natural chain unless it says otherwise.
# UniProt Q96GD4, whole entry: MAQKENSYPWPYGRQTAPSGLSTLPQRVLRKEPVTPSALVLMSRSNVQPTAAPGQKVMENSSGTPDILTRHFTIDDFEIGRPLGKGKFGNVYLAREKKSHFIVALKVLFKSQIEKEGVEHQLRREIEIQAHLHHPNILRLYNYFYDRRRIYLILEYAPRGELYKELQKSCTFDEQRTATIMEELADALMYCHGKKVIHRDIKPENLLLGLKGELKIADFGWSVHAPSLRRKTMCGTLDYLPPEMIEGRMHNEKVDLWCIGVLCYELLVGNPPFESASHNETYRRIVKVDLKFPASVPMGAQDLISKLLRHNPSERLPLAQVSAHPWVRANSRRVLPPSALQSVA
# UniProt Q9UQB9: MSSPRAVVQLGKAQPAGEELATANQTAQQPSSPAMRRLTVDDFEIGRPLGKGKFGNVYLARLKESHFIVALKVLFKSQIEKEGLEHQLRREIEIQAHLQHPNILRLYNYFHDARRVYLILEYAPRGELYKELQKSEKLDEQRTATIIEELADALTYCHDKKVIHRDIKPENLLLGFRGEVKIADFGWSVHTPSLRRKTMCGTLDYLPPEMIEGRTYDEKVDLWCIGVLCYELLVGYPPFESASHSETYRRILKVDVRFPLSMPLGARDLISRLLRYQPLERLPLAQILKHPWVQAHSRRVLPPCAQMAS
# Structures can show the parent of a compound that is named as a salt. This is one part of the list. Hit calls seldom repeat between salt and free forms of one compound.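 Kinases, fused to nanoluciferase, were expressed in K562 cells; luminescence was measured every 4 h from 2 to 18 h as percent of control (DMSO = 100%, positive control = 0%). A time point is decreased if signal falls significantly (2 sigma). Hits were called by the authors by a rule that is not shown; the count of time points alone does not decide it.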
# Biological target: AURKB (UniProt Q96GD4)
# Assay: number of time points (of 5) at which kinase-Nluc abundance scored as decreased, DMSO-normalised (count); higher = more persistent destabilization
# Details: K562; 2-18 h
row,Compound,number of time points
1,O=C(NCCN1CCOCC1)Nc1nc2ccc(Sc3nnc4ccc(-c5ccc(F)cc5)nn34)cc2s1 (10 µM),0
2,Cn1c(CNc2cccc(C(=O)NCc3ccccc3C(F)(F)F)c2)nnc1-c1ccncc1 (10 µM),0
3,COc1cc2cc(Oc3ccc4ccc(=O)oc4c3)c(=O)oc2cc1O [Daphnoretin] (10 µM),0
4,O=C(O)c1cc(N(Cc2ccccc2O)Cc2cc(O)ccc2O)ccc1O [Lavendustin A] (10 µM),0
5,Cc1c(Cl)cccc1S(=O)(=O)Nc1nc(NCCc2ccccc2)nc2c1CN(Cc1ccccc1)CC2 (2.5 µM),0
6,CO[C@H]1C[C@@H]2CC[C@@H](C)[C@@](O)(O2)C(=O)C(=O)N2CCCC[C@H]2C(=O)O[C@H]([C@H](C)C[C@@H]2CC[C@@H](OC(=O)C(C)(CO)CO)[C@H](OC)C2)CC(=O)[C@H](C)/C=C(\C)[C@@H](O)[C@@H](OC)C(=O)[C@H](C)C[C@H](C)/C=C/C=C/C=C/1C [Temsirolimus] (2.5 µM),0
7,O=C1Nc2ccc(CN3C(=O)CSC3=O)cc2/C1=C/c1cc(CN2CCOCC2)c[nH]1 (10 µM),0

# Biological target: AURKC (UniProt Q9UQB9)
# Assay: as above
# Details: K562; 2-18 h
row,Compound,number of time points
1,N#Cc1cnc2c(Cl)cc(NCc3cn(CCN4CCCCCC4)nn3)cc2c1Nc1ccc(F)c(Cl)c1 [Cot inhibitor-1] (10 µM),0
2,Cc1cc(Nc2cc(N)ncn2)c(=O)n2c1C(=O)NC21CCCCC1 [Tomivosertib] (10 µM),0
3,CC(Cc1ccc(O)c(O)c1)C(C)Cc1ccc(O)c(O)c1 (stereo not given) [Nordihydroguaiaretic acid] (2.5 µM),0
4,CNC(=O)c1ccc2c(C(=Nc3cccc(CN(C)C)c3)c3ccccc3)c(O)[nH]c2c1 [MEK inhibitor] (10 µM),0
5,COC(=O)[C@H](CCSC)NC(=O)c1ccc(NC[C@@H](N)CS)cc1-c1ccccc1 [FTI-277 (hydrochloride)] (10 µM),0
6,C=CC(=O)Nc1ccc(C(=O)Nc2[nH]nc3c2CN(C(=O)N[C@H](CN(C)C)c2ccccc2)C3(C)C)cc1 (10 µM),0
7,CCN(CC)CCCC(C)Nc1nc(C)cc(Nc2ccc3nc(C)cc(N)c3c2)n1 (stereo not given) (10 µM),0
8,COc1cc(F)ccc1-c1ncnc(Nc2cccc(C[S@](C)(=N)=O)c2)n1 [Atuveciclib] (2.5 µM),0
9,O=C(c1cccc(Cl)c1F)N1CCN(Cc2cccc(Nc3nccs3)n2)CC1 (2.5 µM),0
10,N#Cc1ccc(-c2cnc3ccc(-c4ccc(C(=O)N5CCOCC5)cc4)cn23)cc1 (10 µM),0
11,Cc1ccc(C(=O)NC2CC2)cc1-n1ncc(C(=O)c2cccc(C#N)c2)c1N [Acumapimod] (10 µM),0
12,N#Cc1ccc(-c2cnc3[nH]cc(NC(=O)c4cccnc4)c3c2)cc1 (10 µM),0
13,CC1(N)CCN(c2cccnc2NC(=O)c2nc(-c3ncccc3C(F)(F)F)cnc2N)CC1 [Darovasertib] (10 µM),0
14,COc1cc(N2CCC(N3CCN(C)CC3)CC2)ccc1Nc1ncc(Cl)c(-c2c[nH]c3ccccc23)n1 (2.5 µM),0
15,CN1CCN(c2ccc(Nc3ncc4cc(C#N)c(=O)n(C5CCCC5)c4n3)cc2)CC1 (10 µM),0
16,CO[C@H]1CC[C@H](N2C(=O)CNc3ncc(-c4ccc(C(C)(C)O)nc4)nc32)CC1 (2.5 µM),0
17,Cc1c(C(=O)Nc2ccc(Oc3ccnc4[nH]cc(-c5ccccc5)c34)c(F)c2)c(=O)n(-c2ccc(F)cc2)n1C (10 µM),0
18,COc1ccc(Nc2ncc(C(F)(F)F)c(NC3CC3)n2)cc1OC (10 µM),0
19,C[C@@H]1O[C@@H](Oc2cc(O)c3c(=O)c(O[C@@H]4O[C@@H](C)[C@H](O)[C@@H](O)[C@H]4O)c(-c4ccc(O)cc4)oc3c2)[C@H](O)[C@H](O)[C@H]1O [Kaempferitrin] (10 µM),0

row,Compound,number of time points
1,COC(=O)Nc1ccc(-c2nc(N3CCOCC3)c3cnn(C4CCN(Cc5cccnc5)CC4)c3n2)cc1 (10 µM),0
2,CC(C)Oc1ccc(F)c(-c2cnc(N)c(C(=O)Nc3cnccc3N3CCC[C@@H](C(=O)O)C3)n2)c1 (2 µM),0
3,O=Nc1c(-c2c(O)[nH]c3cc(Br)ccc23)[nH]c2ccccc12 [GSK 3 Inhibitor IX] (2.5 µM),0
4,NCC1CCC(CNc2nc(NCc3ccccc3OC(F)(F)F)ncc2[N+](=O)[O-])CC1 (stereo not given) [PKC-theta inhibitor] (10 µM),0
5,N[C@@H]1CCCN(c2c(/C=C3\SC(=O)NC3=O)cccc2-c2ccccc2)C1 (10 µM),0
6,CCn1c(-c2nonc2N)nc2c(C#CC(C)(C)O)ncc(OC[C@H]3CCCNC3)c21 (10 µM),0
7,CNC(=O)c1cc2c(Oc3ccc(NC(=O)C4(C(=O)Nc5ccc(F)cc5)CC4)cc3)ccnc2cc1OC (2.5 µM),0
8,C=CC(=O)N1CC[C@@H](Oc2nc(Nc3ccc(N4CCC(N5CCN(C)CC5)CC4)cc3)c(C(N)=O)nc2CC)C1 [Naquotinib (mesylate)] (2.5 µM),0
9,C=CC(=O)Nc1cc(Nc2nccc(-c3cn(C)c4ccccc34)n2)c(OC)cc1OCCN(C)C [Rezivertinib] (2.5 µM),0
10,Oc1c(F)cc(-c2cnccc2-c2ccc(N3CCOCC3)cc2)cc1F (10 µM),0
11,Brc1ccc(CSc2nc3ccccc3o2)cc1 [BMP signaling agonist sb4] (10 µM),0
12,O=C1OC(/C=C/c2ccccc2)=NC/1=C\c1cccnc1 (10 µM),0
13,O=C(NCCN1CCOCC1)Nc1nc2ccc(Sc3nnc4ccc(-c5ccc(F)cc5)nn34)cc2s1 (10 µM),0
14,Cn1c(CNc2cccc(C(=O)NCc3ccccc3C(F)(F)F)c2)nnc1-c1ccncc1 (10 µM),0
15,COc1cc2cc(Oc3ccc4ccc(=O)oc4c3)c(=O)oc2cc1O [Daphnoretin] (10 µM),0
16,O=C(O)c1cc(N(Cc2ccccc2O)Cc2cc(O)ccc2O)ccc1O [Lavendustin A] (10 µM),0
17,Cc1c(Cl)cccc1S(=O)(=O)Nc1nc(NCCc2ccccc2)nc2c1CN(Cc1ccccc1)CC2 (2.5 µM),0
18,CO[C@H]1C[C@@H]2CC[C@@H](C)[C@@](O)(O2)C(=O)C(=O)N2CCCC[C@H]2C(=O)O[C@H]([C@H](C)C[C@@H]2CC[C@@H](OC(=O)C(C)(CO)CO)[C@H](OC)C2)CC(=O)[C@H](C)/C=C(\C)[C@@H](O)[C@@H](OC)C(=O)[C@H](C)C[C@H](C)/C=C/C=C/C=C/1C [Temsirolimus] (2.5 µM),0
19,O=C1Nc2ccc(CN3C(=O)CSC3=O)cc2/C1=C/c1cc(CN2CCOCC2)c[nH]1 (10 µM),0
